Experimental findings from article PMC7961486 are described below.

Amino acid sequences for entries named in this document (tags omitted). A change or cut given only in a name is not applied to a line headed by its entry.
UniProt Q9BSQ5: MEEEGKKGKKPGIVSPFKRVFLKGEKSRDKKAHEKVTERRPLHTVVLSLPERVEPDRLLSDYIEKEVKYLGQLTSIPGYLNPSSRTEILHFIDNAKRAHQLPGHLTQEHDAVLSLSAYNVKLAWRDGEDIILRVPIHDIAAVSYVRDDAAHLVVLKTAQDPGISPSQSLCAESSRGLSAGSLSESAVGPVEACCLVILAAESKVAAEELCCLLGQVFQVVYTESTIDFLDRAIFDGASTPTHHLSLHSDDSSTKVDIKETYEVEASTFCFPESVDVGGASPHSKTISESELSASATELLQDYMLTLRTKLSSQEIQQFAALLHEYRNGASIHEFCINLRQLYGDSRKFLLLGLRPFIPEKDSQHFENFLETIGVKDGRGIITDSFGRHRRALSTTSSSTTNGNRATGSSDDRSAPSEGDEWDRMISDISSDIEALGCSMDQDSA
UniProt P17844: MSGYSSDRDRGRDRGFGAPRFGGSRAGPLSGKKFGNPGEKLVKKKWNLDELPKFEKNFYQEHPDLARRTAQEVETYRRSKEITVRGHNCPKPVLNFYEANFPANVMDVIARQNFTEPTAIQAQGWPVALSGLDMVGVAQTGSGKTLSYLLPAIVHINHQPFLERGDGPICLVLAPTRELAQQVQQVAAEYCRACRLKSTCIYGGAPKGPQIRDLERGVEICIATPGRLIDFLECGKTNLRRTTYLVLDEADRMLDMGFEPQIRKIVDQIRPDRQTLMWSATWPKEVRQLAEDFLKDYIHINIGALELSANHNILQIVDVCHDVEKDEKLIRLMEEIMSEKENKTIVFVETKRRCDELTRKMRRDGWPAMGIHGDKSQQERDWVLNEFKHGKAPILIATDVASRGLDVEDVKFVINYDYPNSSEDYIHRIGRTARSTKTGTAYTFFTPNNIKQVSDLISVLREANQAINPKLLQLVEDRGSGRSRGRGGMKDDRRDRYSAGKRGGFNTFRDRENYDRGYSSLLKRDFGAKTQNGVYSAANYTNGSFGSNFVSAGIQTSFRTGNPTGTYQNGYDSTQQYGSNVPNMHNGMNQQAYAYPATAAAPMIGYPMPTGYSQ
UniProt O00522: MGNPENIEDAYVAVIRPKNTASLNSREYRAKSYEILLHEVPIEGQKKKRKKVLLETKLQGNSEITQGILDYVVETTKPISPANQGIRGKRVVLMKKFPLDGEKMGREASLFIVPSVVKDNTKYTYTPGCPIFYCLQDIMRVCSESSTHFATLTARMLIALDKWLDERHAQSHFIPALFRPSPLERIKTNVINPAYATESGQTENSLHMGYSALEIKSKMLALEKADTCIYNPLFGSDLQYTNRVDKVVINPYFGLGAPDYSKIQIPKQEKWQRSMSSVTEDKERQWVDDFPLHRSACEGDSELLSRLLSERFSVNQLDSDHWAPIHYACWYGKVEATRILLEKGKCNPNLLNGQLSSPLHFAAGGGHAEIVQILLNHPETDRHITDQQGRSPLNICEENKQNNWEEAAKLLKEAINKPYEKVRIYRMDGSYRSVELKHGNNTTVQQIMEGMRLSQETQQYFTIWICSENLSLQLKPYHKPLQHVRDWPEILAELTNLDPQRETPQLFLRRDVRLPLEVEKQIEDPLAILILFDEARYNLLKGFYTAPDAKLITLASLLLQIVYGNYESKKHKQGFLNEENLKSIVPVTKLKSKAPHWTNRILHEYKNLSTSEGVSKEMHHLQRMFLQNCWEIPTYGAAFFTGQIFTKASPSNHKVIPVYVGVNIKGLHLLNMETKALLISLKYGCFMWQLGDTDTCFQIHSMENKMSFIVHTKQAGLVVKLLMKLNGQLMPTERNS

Results are given in words; binding and its absence hold for the method and conditions named. Binding seen in cells or lysates may run through a third protein. Some results given as binding are weak or reduced against the parent protein; the word gives no strength.

One test has as its target Flag-tagged L198R CCM2 (UniProt Q9BSQ5). The test can be described thus: co-IP; PC3 lysates; Flag-CCM2 (WT or L198R) immunoprecipitated with anti-Flag antibody on Protein G-agarose, beads washed three times with RIPA buffer at 4 °C; blot with anti-HA (HA-DDX5) or anti-CCM1 (endogenous CCM1); in some samples CCM1 was RNAi-silenced.
In a further test the target is Flag-tagged WT CCM2 (UniProt Q9BSQ5). The description is as above.
The target in test [1] is DDX5, endogenous in U2OS cells (human (endogenous in U2OS)) (UniProt P17844). As to the kind of experiment: co-IP; U2OS lysates with overexpressed Flag-CCM1; endogenous DDX5 immunoprecipitated with anti-DDX5 antibody on Protein G-agarose, beads washed three times with RIPA buffer at 4 °C; blot with anti-Flag.

Turning to “HA-tagged DDX5 (WT) (from UniProt P17844 1-614)”, the binding entry in the test with Flag-tagged L198R CCM2 and with Flag-tagged WT CCM2 was “binds” throughout.

As for “CCM1, endogenous in PC3 cells (from UniProt O00522 1-736)”, the binding result with Flag-tagged WT CCM2 is given as “binds”.

Take “Flag-tagged CCM1 (cerebral cavernous malformation 1) (from UniProt O00522 1-736)”: the binding entry in test [1] is “binds”.
